In test [1] the target is IL-11_(Δ10/Mutein) (human) (UniProt P20809). Put plainly: AUC.
The target of test [2] is IL-11_(Δ10/W147A) (human) (UniProt P20809). Description: AUC.

Changes are numbered by the printed parent chain. In names and notes the source's numbering stands. Results are given in words; binding and its absence hold for the method and conditions named.

B1: IL-11_(Δ10/Mutein) (ligand, UniProt P20809 32-199)
chain: SPDPRAELDSTVLLTRSLLADTRQLAAQLRDKFPADGDHNLDSLPTLPAIDYALGALQLPGVLTRLRADLLSYLRHVQWLRRAGGSSLKTLEPELGTLQARLDRLLRRLQLLMSRLALPQPPPDPPAPPLAPPSSAAGGIRAAHAILGGLHLTLDWAVRGLLLLKTRL
With B1, the binding entry in test [1] is recorded as “no binding”.

B2: IL-11_(Δ10/W147A) (ligand, UniProt P20809 32-199)
chain: B1 chain with P48A, A49M, I50S, D51A, Y52G
As for B2, the binding result in test [2] is “no binding”.

These data come from publication doi:10.1101/2022.07.21.500383 (bioRxiv, 2022).
